In article doi:10.1101/2024.04.26.591336 one finds binding data, which are given here for 19 molecules.

Amino acid sequences for entries named in this document (tags omitted). A change or cut given only in a name is not applied to a line headed by its entry. Residues count along the entry.
UniProt Q04721, residues 26-2471: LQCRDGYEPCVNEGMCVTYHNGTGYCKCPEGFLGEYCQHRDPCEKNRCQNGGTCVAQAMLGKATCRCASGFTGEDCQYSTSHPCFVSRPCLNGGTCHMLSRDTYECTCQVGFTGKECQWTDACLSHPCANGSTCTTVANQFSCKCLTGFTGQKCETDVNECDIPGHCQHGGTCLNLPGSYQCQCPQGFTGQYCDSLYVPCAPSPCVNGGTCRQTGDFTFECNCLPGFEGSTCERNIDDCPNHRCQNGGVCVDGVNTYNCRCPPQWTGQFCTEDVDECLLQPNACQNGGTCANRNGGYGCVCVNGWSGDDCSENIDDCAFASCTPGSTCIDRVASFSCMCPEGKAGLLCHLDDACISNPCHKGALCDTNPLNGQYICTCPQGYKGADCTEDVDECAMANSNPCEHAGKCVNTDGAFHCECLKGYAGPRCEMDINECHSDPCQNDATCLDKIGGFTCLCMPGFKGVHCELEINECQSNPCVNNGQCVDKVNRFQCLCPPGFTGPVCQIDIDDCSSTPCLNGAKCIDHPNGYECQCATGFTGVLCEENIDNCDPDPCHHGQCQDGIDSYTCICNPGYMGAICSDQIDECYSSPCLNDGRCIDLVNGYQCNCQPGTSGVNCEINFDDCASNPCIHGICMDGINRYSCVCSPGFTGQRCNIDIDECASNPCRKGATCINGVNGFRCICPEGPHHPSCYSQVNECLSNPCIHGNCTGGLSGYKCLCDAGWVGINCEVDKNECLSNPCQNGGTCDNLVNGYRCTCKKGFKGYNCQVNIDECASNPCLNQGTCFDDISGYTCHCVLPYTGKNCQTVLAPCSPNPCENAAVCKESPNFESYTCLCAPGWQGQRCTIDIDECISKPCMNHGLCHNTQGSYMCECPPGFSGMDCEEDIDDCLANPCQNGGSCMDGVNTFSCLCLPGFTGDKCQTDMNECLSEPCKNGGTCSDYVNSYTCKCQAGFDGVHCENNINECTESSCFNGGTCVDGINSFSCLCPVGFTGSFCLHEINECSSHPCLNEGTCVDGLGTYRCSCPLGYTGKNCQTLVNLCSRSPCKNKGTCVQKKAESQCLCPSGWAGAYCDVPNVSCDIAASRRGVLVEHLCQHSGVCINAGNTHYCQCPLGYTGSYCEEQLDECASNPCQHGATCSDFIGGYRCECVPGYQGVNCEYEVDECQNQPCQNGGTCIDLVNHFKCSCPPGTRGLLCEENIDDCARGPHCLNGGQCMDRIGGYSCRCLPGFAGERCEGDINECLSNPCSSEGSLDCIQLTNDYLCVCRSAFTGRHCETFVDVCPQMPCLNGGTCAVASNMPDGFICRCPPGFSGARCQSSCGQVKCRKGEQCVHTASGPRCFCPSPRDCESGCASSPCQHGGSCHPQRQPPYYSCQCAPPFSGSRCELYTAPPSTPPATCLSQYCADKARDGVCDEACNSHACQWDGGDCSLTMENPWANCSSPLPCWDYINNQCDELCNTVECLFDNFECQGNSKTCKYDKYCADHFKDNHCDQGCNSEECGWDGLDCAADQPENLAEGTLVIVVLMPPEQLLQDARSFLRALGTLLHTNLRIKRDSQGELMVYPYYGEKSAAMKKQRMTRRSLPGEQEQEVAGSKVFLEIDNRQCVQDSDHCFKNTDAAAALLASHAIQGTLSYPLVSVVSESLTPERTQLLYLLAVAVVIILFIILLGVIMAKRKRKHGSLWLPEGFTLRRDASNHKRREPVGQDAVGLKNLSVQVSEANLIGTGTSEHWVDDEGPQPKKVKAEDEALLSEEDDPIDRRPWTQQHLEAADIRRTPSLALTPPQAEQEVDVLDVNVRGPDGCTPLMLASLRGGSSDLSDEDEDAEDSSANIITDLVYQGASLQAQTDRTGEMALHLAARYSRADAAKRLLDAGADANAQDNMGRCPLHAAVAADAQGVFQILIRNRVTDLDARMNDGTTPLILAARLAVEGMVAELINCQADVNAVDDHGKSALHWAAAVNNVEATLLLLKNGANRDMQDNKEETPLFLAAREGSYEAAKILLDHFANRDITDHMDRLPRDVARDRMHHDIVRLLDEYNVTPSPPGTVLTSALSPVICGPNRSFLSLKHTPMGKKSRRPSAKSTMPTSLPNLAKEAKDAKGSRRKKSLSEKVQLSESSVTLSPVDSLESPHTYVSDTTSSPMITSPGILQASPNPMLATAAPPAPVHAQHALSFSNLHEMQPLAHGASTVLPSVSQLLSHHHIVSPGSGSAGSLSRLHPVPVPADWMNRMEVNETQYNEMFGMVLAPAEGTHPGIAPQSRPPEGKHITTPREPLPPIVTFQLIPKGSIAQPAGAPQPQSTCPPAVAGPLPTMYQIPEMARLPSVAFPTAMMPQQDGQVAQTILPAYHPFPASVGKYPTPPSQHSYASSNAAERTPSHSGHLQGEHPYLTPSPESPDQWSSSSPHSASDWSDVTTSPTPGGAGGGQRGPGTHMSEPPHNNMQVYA
UniProt Q9UHV7: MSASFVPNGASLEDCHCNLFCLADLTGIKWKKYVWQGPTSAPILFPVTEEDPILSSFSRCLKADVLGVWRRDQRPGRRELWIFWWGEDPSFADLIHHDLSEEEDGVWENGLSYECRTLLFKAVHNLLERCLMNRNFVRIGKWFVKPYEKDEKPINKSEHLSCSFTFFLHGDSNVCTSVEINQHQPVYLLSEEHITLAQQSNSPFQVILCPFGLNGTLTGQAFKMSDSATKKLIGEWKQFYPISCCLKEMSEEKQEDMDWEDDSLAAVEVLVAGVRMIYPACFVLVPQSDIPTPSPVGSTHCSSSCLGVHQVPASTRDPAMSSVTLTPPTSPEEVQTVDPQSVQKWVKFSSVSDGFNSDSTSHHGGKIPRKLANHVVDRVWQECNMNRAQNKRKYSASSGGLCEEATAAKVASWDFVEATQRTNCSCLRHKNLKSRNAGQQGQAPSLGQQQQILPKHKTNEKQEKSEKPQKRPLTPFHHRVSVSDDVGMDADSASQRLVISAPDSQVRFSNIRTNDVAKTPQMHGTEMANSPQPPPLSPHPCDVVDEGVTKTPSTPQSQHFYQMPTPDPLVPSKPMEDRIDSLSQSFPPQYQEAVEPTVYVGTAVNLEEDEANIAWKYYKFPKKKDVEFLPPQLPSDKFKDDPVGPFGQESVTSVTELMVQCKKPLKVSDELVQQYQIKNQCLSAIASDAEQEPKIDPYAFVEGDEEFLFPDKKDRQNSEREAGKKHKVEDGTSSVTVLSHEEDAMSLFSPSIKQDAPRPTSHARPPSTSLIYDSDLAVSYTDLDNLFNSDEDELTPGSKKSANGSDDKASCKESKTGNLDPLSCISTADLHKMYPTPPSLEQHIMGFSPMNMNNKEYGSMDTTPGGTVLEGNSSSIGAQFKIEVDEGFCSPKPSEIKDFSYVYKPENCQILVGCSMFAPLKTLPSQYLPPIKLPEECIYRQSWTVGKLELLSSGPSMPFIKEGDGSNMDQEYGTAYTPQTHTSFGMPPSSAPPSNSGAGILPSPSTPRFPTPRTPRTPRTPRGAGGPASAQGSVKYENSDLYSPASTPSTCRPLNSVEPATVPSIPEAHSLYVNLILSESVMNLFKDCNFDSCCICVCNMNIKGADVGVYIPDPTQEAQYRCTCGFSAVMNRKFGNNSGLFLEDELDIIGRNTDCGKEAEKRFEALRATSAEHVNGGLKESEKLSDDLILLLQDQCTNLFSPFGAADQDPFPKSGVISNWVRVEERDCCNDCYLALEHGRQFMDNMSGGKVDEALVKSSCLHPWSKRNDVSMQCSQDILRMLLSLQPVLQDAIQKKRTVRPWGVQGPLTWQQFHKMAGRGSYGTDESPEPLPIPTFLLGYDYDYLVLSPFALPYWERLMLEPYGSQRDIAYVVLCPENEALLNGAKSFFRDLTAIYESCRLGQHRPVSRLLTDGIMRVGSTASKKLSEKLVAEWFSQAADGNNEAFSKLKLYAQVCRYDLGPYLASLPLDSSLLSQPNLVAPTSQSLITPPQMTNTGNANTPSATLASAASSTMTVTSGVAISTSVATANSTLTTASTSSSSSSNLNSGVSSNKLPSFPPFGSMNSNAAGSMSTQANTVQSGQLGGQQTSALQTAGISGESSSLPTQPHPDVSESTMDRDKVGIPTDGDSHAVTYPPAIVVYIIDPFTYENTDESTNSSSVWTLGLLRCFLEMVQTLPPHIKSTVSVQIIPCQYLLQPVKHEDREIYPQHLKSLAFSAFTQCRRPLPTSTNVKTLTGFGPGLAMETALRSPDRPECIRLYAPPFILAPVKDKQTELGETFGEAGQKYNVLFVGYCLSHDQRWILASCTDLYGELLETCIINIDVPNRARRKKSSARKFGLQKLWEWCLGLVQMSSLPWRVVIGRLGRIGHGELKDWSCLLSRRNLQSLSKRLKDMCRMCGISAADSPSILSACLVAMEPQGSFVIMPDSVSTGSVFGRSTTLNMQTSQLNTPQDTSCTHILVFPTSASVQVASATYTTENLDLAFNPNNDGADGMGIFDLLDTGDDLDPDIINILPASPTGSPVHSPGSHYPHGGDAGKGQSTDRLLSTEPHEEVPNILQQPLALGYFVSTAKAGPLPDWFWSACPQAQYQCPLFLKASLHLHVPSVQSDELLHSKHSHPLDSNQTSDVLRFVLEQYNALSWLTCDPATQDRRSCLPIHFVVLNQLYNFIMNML
UniProt Q9UKK3: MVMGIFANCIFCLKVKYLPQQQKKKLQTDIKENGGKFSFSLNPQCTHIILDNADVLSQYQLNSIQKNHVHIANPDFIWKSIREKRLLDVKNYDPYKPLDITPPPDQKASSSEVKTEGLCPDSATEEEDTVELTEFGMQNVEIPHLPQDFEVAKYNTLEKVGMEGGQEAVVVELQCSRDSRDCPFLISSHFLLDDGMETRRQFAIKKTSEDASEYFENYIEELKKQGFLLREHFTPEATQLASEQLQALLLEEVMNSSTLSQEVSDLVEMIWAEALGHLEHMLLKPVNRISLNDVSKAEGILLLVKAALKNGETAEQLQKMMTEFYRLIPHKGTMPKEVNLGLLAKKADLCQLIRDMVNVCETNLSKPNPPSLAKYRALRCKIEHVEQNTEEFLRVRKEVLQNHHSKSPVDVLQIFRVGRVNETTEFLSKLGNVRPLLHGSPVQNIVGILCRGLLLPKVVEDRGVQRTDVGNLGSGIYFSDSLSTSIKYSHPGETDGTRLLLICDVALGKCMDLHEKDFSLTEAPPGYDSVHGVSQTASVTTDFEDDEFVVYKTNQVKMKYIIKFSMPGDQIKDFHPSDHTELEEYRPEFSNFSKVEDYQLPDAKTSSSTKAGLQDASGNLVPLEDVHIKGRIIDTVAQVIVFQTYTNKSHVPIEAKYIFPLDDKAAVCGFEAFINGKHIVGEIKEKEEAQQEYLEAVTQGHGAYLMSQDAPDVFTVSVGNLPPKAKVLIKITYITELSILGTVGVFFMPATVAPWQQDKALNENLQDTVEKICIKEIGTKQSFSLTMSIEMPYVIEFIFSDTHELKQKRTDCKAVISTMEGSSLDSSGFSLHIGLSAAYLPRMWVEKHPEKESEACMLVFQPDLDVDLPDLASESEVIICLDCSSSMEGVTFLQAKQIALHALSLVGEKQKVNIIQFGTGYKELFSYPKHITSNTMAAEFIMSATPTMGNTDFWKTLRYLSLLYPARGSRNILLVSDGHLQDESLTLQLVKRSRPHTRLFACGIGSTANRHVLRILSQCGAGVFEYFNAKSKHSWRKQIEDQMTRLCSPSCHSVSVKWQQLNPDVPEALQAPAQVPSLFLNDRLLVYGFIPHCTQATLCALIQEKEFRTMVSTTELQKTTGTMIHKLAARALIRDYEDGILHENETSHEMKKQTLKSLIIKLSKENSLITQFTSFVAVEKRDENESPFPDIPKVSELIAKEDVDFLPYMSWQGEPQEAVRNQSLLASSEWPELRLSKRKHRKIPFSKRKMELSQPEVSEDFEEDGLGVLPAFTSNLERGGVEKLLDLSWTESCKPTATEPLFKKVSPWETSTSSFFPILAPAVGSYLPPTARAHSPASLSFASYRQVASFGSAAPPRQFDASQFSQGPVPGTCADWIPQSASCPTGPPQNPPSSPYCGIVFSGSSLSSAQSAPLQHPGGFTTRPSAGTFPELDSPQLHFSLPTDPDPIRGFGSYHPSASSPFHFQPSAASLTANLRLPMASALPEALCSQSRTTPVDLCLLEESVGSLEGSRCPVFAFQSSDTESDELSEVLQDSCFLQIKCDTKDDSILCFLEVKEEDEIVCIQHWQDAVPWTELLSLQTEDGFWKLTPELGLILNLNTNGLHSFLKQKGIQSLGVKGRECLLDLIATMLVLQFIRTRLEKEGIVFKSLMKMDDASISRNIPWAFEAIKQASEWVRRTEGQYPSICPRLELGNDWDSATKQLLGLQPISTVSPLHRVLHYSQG

These are yes or no findings as the source states them, for the method shown. Binding seen in cells or lysates may run through a third protein. These calls come from enrichment with a bait or labelling near it, and not all partners need be listed. For some assays here: A no says only that the protein was not detected with the bait.

B1: TXNIP (protein, UniProt Q9H3M7 1-391)
chain: MVMFKKIKSFEVVFNDPEKVYGSGEKVAGRVIVEVCEVTRVKAVRILACGVAKVLWMQGSQQCKQTSEYLRYEDTLLLEDQPTGENEMVIMRPGNKYEYKFGFELPQGPLGTSFKGKYGCVDYWVKAFLDRPSQPTQETKKNFEVVDLVDVNTPDLMAPVSAKKEKKVSCMFIPDGRVSVSARIDRKGFCEGDEISIHADFENTCSRIVVPKAAIVARHTYLANGQTKVLTQKLSSVRGNHIISGTCASWRGKSLRVQKIRPSILGCNILRVEYSLLIYVSVPGSKKVILDLPLVIGSRSGLSSRTSSMASRTSSEMSWVDLNIPDTPEAPPCYMDVIPEDHRLESPTTPLLDDMDGSQDSPIFMYAPEFKFMPPPTYTEVDPCILNNNVQ
B2: MED9 (protein, UniProt Q9NWA0 1-146)
chain: MASAGVAAGRQAEDVLPPTSDQPLPDTKPLPPPQPPPVPAPQPQQSPAPRPQSPARAREEENYSFLPLVHNIIKCMDKDSPEVHQDLNALKSKFQEMRKLISTMPGIHLSPEQQQQQLQSLREQVRTKNELLQKYKSLCMFEIPKE
B3: MED8 (protein, UniProt Q96G25 1-268)
chain: MQREEKQLEASLDALLSQVADLKNSLGSFICKLENEYGRLTWPSVLDSFALLSGQLNTLNKVLKHEKTPLFRNQVIIPLVLSPDRDEDLMRQTEGRVPVFSHEVVPDHLRTKPDPEVEEQEKQLTTDAARIGADAAQKQIQSLNKMCSNLLEKISKEERESESGGLRPNKQTFNPTDTNALVAAVAFGKGLSNWRPSGSSGPGQAGQPGAGTILAGTSGLQQVQMAGAPSQQQPMLSGVQMAQAGQPGKMPSGIKTNIKSASMHPYQR
B4: MED17 (protein, UniProt Q9NVC6 1-651)
chain: MSGVRAVRISIESACEKQVHEVGLDGTETYLPPLSMSQNLARLAQRIDFSQGSGSEEEEAAGTEGDAQEWPGAGSSADQDDEEGVVKFQPSLWPWDSVRNNLRSALTEMCVLYDVLSIVRDKKFMTLDPVSQDALPPKQNPQTLQLISKKKSLAGAAQILLKGAERLTKSVTENQENKLQRDFNSELLRLRQHWKLRKVGDKILGDLSYRSAGSLFPHHGTFEVIKNTDLDLDKKIPEDYCPLDVQIPSDLEGSAYIKVSIQKQAPDIGDLGTVNLFKRPLPKSKPGSPHWQTKLEAAQNVLLCKEIFAQLSREAVQIKSQVPHIVVKNQIISQPFPSLQLSISLCHSSNDKKSQKFATEKQCPEDHLYVLEHNLHLLIREFHKQTLSSIMMPHPASAPFGHKRMRLSGPQAFDKNEINSLQSSEGLLEKIIKQAKHIFLRSRAAATIDSLASRIEDPQIQAHWSNINDVYESSVKVLITSQGYEQICKSIQLQLNIGVEQIRVVHRDGRVITLSYQEQELQDFLLSQMSQHQVHAVQQLAKVMGWQVLSFSNHVGLGPIESIGNASAITVASPSGDYAISVRNGPESGSKIMVQFPRNQCKDLPKSDVLQDNKWSHLRGPFKEVQWNKMEGRNFVYKMELLMSALSPCLL
B5: MED25 (protein, UniProt Q71SY5 1-747)
chain: MVPGSEGPARAGSVVADVVFVIEGTANLGPYFEGLRKHYLLPAIEYFNGGPPAETDFGGDYGGTQYSLVVFNTVDCAPESYVQCHAPTSSAYEFVTWLDGIKFMGGGGESCSLIAEGLSTALQLFDDFKKMREQIGQTHRVCLLICNSPPYLLPAVESTTYSGCTTENLVQQIGERGIHFSIVSPRKLPALRLLFEKAAPPALLEPLQPPTDVSQDPRHMVLVRGLVLPVGGGSAPGPLQSKQPVPLPPAAPSGATLSAAPQQPLPPVPPQYQVPGNLSAAQVAAQNAVEAAKNQKAGLGPRFSPITPLQQAAPGVGPPFSQAPAPQLPPGPPGAPKPPPASQPSLVSTVAPGSGLAPTAQPGAPSMAGTVAPGGVSGPSPAQLGAPALGGQQSVSNKLLAWSGVLEWQEKPKPASVDANTKLTRSLPCQVYVNHGENLKTEQWPQKLIMQLIPQQLLTTLGPLFRNSRMVQFHFTNKDLESLKGLYRIMGNGFAGCVHFPHTAPCEVRVLMLLYSSKKKIFMGLIPYDQSGFVNGIRQVITNHKQVQQQKLEQQQRGMGGQQAPPGLGPILEDQARPSQNLLQLRPPQPQPQGTVGASGATGQPQPQGTAQPPPGAPQGPPGAASGPPPPGPILRPQNPGANPQLRSLLLNPPPPQTGVPPPQASLHHLQPPGAPALLPPPHQGLGQPQLGPPLLHPPPAQSWPAQLPPRAPLPGQMLLSGGPRGPVPQPGLQPSVMEDDILMDLI
B6: MED10 (protein, UniProt Q9BTT4 1-135)
chain: MAEKFDHLEEHLEKFVENIRQLGIIVSDFQPSSQAGLNQKLNFIVTGLQDIDKCRQQLHDITVPLEVFEYIDQGRNPQLYTKECLERALAKNEQVKGKIDTMKKFKSLLIQELSKVFPEDMAKYRSIRGEDHPPS
B7: MED20 (protein, UniProt Q9H944 1-212)
chain: MGVTCVSQMPVAEGKSVQQTVELLTRKLEMLGAEKQGTFCVDCETYHTAASTLGSQGQTGKLMYVMHNSEYPLSCFALFENGPCLIADTNFDVLMVKLKGFFQSAKASKIETRGTRYQYCDFLVKVGTVTMGPSARGISVEVEYGPCVVASDCWSLLLEFLQSFLGSHTPGAPAVFGNRHDAVYGPADTMVQYMELFNKIRKQQQVPVAGIR
B8: CCNC (protein, UniProt P24863 1-283)
chain: MAGNFWQSSHYLQWILDKQDLLKERQKDLKFLSEEEYWKLQIFFTNVIQALGEHLKLRQQVIATATVYFKRFYARYSLKSIDPVLMAPTCVFLASKVEEFGVVSNTRLIAAATSVLKTRFSYAFPKEFPYRMNHILECEFYLLELMDCCLIVYHPYRPLLQYVQDMGQEDMLLPLAWRIVNDTYRTDLCLLYPPFMIALACLHVACVVQQKDARQWFAELSVDMEKILEIIRVILKLYEQWKNFDERKEMATILSKMPKPKPPPNSEGEQGPNGSQNSSYSQS
B9: MED26 (protein, UniProt O95402 1-600)
chain: MTAAPASPQQIRDRLLQAIDPQSNIRNMVAVLEVISSLEKYPITKEALEETRLGKLINDVRKKTKNEELAKRAKKLLRSWQKLIEPAHQHEAALRGLAGATGSANGGAHNCRPEVGAAGPPRSIHDLKSRNDLQRLPGQRLDRLGSRKRRGDQRDLGHPGPPPKVSKASHDPLVPNSSPLPTNGISGSPESFASSLDGSGHAGPEGSRLERDENDKHSGKIPVNAVRPHTSSPGLGKPPGPCLQPKASVLQQLDRVDETPGPPHPKGPPRCSFSPRNSRHEGSFARQQSLYAPKGSVPSPSPRPQALDATQVPSPLPLAQPSTPPVRRLELLPSAESPVCWLEQPESHQRLAGPGCKAGLSPAEPLLSRAGFSPDSSKADSDAASSGGSDSKKKKRYRPRDYTVNLDGQVAEAGVKPVRLKERKLTFDPMTRQIKPLTQKEPVRADSPVHMEQQSRTELDKQEAKASLQSPFEQTNWKELSRNEIIQSYLSRQSSLLSSSGAQTPGAHHFMSEYLKQEESTRQGARQLHVLVPQSPPTDLPGLTREVTQDDLDRIQASQWPGVNGCQDTQGNWYDWTQCISLDPHGDDGRLNILPYVCLD

In the first experiment the target is NOTCH2^ΔE-TurboID (human) (UniProt Q04721). As to the kind of experiment: proximity labelling.
On to MED13 (from UniProt Q9UHV7 1-2174), for which the binding result was “binds”.

On to PARP4 (from UniProt Q9UKK3 1-1724), for which the binding entry is recorded as “binds”.

As to Stat1 (from UniProt P42224 1-750), the binding entry is “binds”.

For SPEN (from UniProt Q96T58 1-3664), the binding entry is “no binding”.

Turning to MED1 (from UniProt Q15648 1-1581), the binding entry is recorded as “binds”.

TP53BP1 (from UniProt Q12888 1-1972): the binding result is “binds”.

In the case of RBPj (from UniProt Q06330 1-500), the binding entry is “binds”.

Take MAML1 (from UniProt Q92585 1-1016): the binding entry was “binds”.

As to “endogenous human NOTCH2 (from UniProt Q04721 26-2471)”, the binding result was “binds”.

As for CDK8 (from UniProt P49336 1-464), the binding entry is “no binding”.

The next experiment shares this target. In words: proximity labelling. This is another data set of the same source.
“endogenous human NOTCH2 (from UniProt Q04721 26-2471)”: the binding entry was “binds”.

For the next experiment the target is unchanged. In words: proximity labelling. The source holds these as a separate data set.
As for B1, the binding result is recorded as “binds”.

Regarding B2, the binding result is listed as “binds”.

B3: the binding result was “binds”.

For B4, the binding entry was “binds”.

For B5, the binding result is reported as “binds”.

For B6, the binding entry is “binds”.

In the case of B7, the binding result is “binds”.

On to B8, for which the binding result is given as “no binding”.

For the molecule B9, the binding result is “binds”.

For the next experiment, the target named is NOTCH2^ΔERA-TurboID (human). As to the kind of experiment: proximity labelling.
As for B1, the binding entry is listed as “binds”.

Take B2: the binding result was “binds”.

With B3, the binding result is “binds”.

Regarding B4, the binding entry was “binds”.

Turning to B5, the binding entry is on record as “binds”.

On to B6, for which the binding result was “binds”.

B7: the binding entry is “binds”.

Take B8: the binding result is on record as “no binding”.

With B9, the binding result is on record as “binds”.
